Series [1] concerns the target GST-HuD (mouse) (UniProt Q61701). The series is described as follows: EMSA. As to conditions: 2 uM protein, 2 nM RNA, 150 mM NaCl, 20 mM Tris (pH not stated), 1.5 mM MgCl2, 0.5 mM DTT, 0.5 ug/ul tRNA, 20 min, room temperature, 5% PAGE in TBE, recombinant protein, residues 3-385, protein details: N-terminal GST (pGEX-2T), label: biotin (unlabeled as competitor), probe letters rebuilt from the primers and the genome, part of a longer molecule.

The chains behind the UniProt entries cited, without tags or fusion partners. Residues count along the entry.
UniProt Q61701, 3-385: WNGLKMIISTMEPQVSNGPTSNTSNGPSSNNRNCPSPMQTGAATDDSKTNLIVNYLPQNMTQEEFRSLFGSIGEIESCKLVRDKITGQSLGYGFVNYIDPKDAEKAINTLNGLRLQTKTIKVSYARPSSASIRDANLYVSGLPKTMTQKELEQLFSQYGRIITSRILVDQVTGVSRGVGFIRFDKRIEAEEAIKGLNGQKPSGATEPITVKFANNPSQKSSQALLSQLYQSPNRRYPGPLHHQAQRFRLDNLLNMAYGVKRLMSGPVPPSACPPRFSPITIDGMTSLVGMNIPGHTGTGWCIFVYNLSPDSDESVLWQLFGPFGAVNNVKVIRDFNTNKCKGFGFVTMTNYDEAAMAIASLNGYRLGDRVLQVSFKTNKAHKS

For series [2] the target is unchanged. As to the kind of experiment: competition with a labelled probe. As to conditions: 8 nM unlabeled vs 2 nM labeled Nova1 A, 150 mM NaCl, 20 mM Tris (pH not stated), 1.5 mM MgCl2, 0.5 mM DTT, 0.5 ug/ul tRNA, 20 min, room temperature, 5% PAGE in TBE, recombinant protein, residues 3-385, protein details: N-terminal GST (pGEX-2T), label: biotin (unlabeled as competitor), probe letters rebuilt from the primers and the genome, part of a longer molecule.

For some of these results: No signal at the amounts used counts as a negative. For some of these results: At least one verdict rests on a figure or table, not on a statement of the authors. The exact form of at least one protein or probe is not confirmed. For some of these results: Weaker means in comparison with the reference protein, sequence or condition of that experiment.

For the sequence “AUGACCAUCCUUUUCCUUACUAUGGUUAUUUCAUACUUCGGUUGCAUGAAGGCGGCGCCCAUGAAAGAAGUAAACGUCCACGGACAAGGCAACUUGGCCUACCCAGGUGUGCGGACCCAUGGGACUCUGGAGAGCGUGAAUGGGCCCAGGGCAGGUUCGAGAGGUCUGACGACGACAUCACUGGCUGACACUUUUGAGCACGUCAUCGAAGAGCUGCUGGAUGAGGACCAGAAGGUUCGGCCCAACGAAGAAAACCAUAAGGACGCGGACUUGUACACUUCCCGGGUGAUGCUCAGCAGUCAAGUGCCUUUGGAGCCUCCUCUACUCUUUCUGCUGGAGGAAUACAAAAAUUACCUGGAUGCCGCAAACAUGUCUAUGAGGGUUCGGCGCCACUCCGACCCUGCCCGCCGUGGGGAGCUGAGCGUGUGUGACAGUAUUAGCGAGUGGGUCACAGCGGCAGAUAAAAAGACUGCAGUGGACAUGUCUGGCGGGACGGUCACAGUCCUAGAGAAAGUCCCGGUAUCCAAAGGCCAACUGAAGCAGUAUUUCUACGAGACCAAGUGUAAUCCCAUGGGUUACACCAAGGAAGGCUGCAGGGGCAUAGACAAAAGGCACUGGAACUCGCAAUGCCGAACUACCCAAUCGUAUGUUCGGGCCCUUACUAUGGAUAGCAAAAAGAGAAUUGGCUGGCGAUUCAUAAGGAUAGACACUUCCUGUGUAUGUACACUGACCAUUAAAAGGGGAAGAUAG [Bdnf CDS probe]”, the binding result in series [1] (little or no shift) is on record as “binds more weakly”; in series [2] (does not compete), “no binding”.
As to “CCUGCGGAGGCUAAGUGGAGCUGACAUACUAUUUCCUGGCAGUGCAGGAGGAAUUUCUGAGUGGCCAUCCUAAGGUCUAGGAUGGAGGUGGGGAAUGGUACUUGAGACAUUCCUAAAGGAAGGCUCGGAAGCACCCUUCAGAGCAGGCUCUGGAAUGAUGUGUCAAGUUGCUUAGGCCUUCUGCUUUAAGUGCCUACAUUACCUAACAGUGCUCAAGAGGUUCUCGAUUGGAGAACCACACUCAAAUCCAUUUAUAGCCUCCAUCCCAUUUCUAAAUAAUUGUGUAUAAAGUUGGAUUAACCUGGAGCAACUUUGGAUCCAAAUAUGGCACAGCAAUAAUGAUAUUAAUGCAGCAUGAUGGGAAAUGUUUGCUGUGAAGAGAAUUGAUUUGCUUUGAGCUUAGACUUCAGGAAGCCUAGGUUUUUUAUUUUUUUAUUUUUGAGACAUUUUGGUAAAAGGAAAAAAAGAAAACAAACAAACAAACAAACAAAACCAGAAAAAGCAUCAAAACUCAGGCAGAAUGAGCAAUGUCUGAAAGGGCUAGAAAAACAAGACAUAGCAAGGUGCUUUCACUGUGAAAGAGACAAGAACACAGGAGGAAAUAUUGCUUCAGUGAAGAGCACAGACGGCUCCUGCCAAUUUAUUACAAGAGUCCCGUCUGUACUUUACCCUUUGGGGUUAGAAGUCAAGUUGGAAGCCUGAAUGAAUGGACCCAAUGAGAACUAGUGUUAAGCCCAUUUCCCUAGUCAGGUUUUUUUCAAGCGUGAAUGUGUUAGUGGUUACUCUCCUGGGUUCCUGAGCAUCAGAAAAAAAAAAAAAAAGAGGCAAACAAUCGCUUCAUCUUAGGAGUG [Bdnf 3'UTR B2]”, the binding result is on record as “binds” in series [1] (smaller shift than B1, B3) and “binds” in series [2] (competes).
Consider “CUCUUUCAGAAAACAGAUUAAAAAAACAAAAAACAAAAAAAAAAAAACAAAAAACAAAAACAAAAAUUGGAACCAAAACAUUCCGUUUACAUUUUAGACACUAAGUAUCUUCGUUCUUGUUAGUACUCUGUUUUACUGCUUUCGACUUCUGAUAGCGUUGGAAUUAAAACAAUGUCAAGGUGCUGUUGUCAUUGCUUUACUGGCGUAAGGGACGGGGAAUGGGAGGGGUAGAUUUCUGUUUGUUUUGUGUUUUAUUUUGUUUGUUUGUUUGUUUUGUUUUUUAGUUCCACCCGGAGUAGGGAUGGAGAAAAUUUCUUCACUAUCCAUUCUGGUUGAUAAAGCGUUACAUUUGUAUGUUGUAAAGAUGUUUGCAAAAUCCAAUCAGAUGACUGGAAAACAAAUAAAAAUUAAGGCAACUGAAUAAAAUGCUCACACUCCACUGCCCAUGAUGUAUCUCCCUGGUCCCCCUCAGCUCACUCUUCUGGCAUGGGUCAGGGAAAAUUGCUUUUAUUGGAAAGACCAGCAUUUGUUCAAAGCAUACUCUUUCCCUCCCUCCUCCCAUUUUGGUCCCUUCUUUUUGUUUUGUUUUAAGAAAGAAAAUUAAGUUGCGCGCUUUAAAAUAUUUUACUACUGCUACAAACAGAUGAACAAUGUGUGUCAUUUUAUGACACUCAUGGAAAACAGUGAUUUUUUUUUACCCUAAAGAAAAACAAAUAAAAAUAACCCAAAAUAUUCUUUUUUUAAAAGGCAUAAAUAUUGGGUAAAUUGUAAUAUGGCCUAACAGUGUUUGCAGAUAAAAGUUAUUGUAUACACCCAGAUACUUAGAUAAGAGCAGGGAUCCACACUGCCAUUGAAAUAGGACUGAAUGGCCCU [Bdnf 3'UTR B1]”, for which the binding result in series [1] (among greatest shifts) and in series [2] (competes) was “binds” in each case.
With “GAAAGGAAACAGAAGUGGACGUCCGCUGUGACUCAGGGAGUGAAGAUACCAUCAGCAAAUAGUUUCUUUUUUGUUCAUUCGUUCCUUUCGAGUUAGCCUGUCUUUUGGAAUACCACUGAAUAUGCUGUUUUUGAAAGACUUCAUGUAGCAUAGAUUGUUUUGUGCCGUUUACCAAAUUAACCUUUGUCAUCGUUUUUUAACCUAUUCAGGAAUGCUUGGAAUAUCUGCUCUAUGUUAACUUUUUGCAGCUUCAUUCUGAGAGACAUUAGUCAAACAAACAAAAGGAUCCCCAUCACAAUCUUACAGUACUGCAAGGGCCAGGUCUGUUAAUCGGCUUCACAGGAGACAUCAGCAAUUGUGUGGUCAGUGGCUGGCUCUCUUACCCACUAAGAUACAUCAUAGCUACAUGUUGGUGGUUUAUGUUGACCUGAGAUUUAUUUGUUAAAAUCUCUUCUUCGUUUCUGUUCGUUCUGGUUCUGUUCUGUUCUGUUCUGUUCUGUUUUGGUUUUAAAGUCUUGCUGUGGUCUCUUGUUGGCAGAAAUGUUUUAUGCAUGGCAGCAGGCCUGUUGCUUUUUUAUAGUGAUUCCCAUUGAAACUGUAAGUAAAUGUCUGUGGCCUUGUUCUCUCUAUGGUAAAGAUAUUAUUCACCAUGUAAAACAAGAAAAAAUAUUUAUUGUAUUUUAGUAUAUUUAUAUAAUUAUGUUAUUGAAAAAAUUGGCAUUAAAACUUAACCACAUCAGAAGCCUAUUGUAAAUACAGGUUCUAUUUAAGUGUACCAAUUAACAUAUAAUAUAUGUUUUAAAUAUAGAAUUUUUAAUGUUUUUAAAUAUAUUUUCAAA [Bdnf 3'UTR B3]”, the binding result in series [1] (among greatest shifts) and in series [2] (competes) was “binds” in each case.
“UGGAUUUAUGUUGUAUAGAUUAUAUUGAGACAAAAUUAUCUAUUUGUAUAUAUACAUAACAGGGUAAAUUAUUCAGUUAAGAAAAAAUAAUUUUAUGAACUGCAUGUAUAAAUGAAGUUUAUACAGUACAGUGGUUCUACAAUCUAUUUAUUGGACAUAUCCAUGACCUGAAAGGAAACAGUCAUUUGCGCACAACUUUAAAAGUCUGCAUUACAUUCCUCGAUAAUGUUGUGGUUUGUUGCCGUUGCCAAGAAUUGAAAACAAAAAGUUUAAAAAAAAUAAUAAUAAAUUGCAUGCUGCUUUAAUUGUGAAUUGAUAAUAAACUGUCCCUCUUUCAGAAAACAGAUU [Bdnf 3'UTR A (short)]”: the binding result in series [1] (little or no shift) is reported as “binds more weakly”; in series [2] (does not compete), “no binding”.
